Experiments:
Parameters in all cases: species or system human
[1] = test system: primary AML samples; test: HLA class I ligandome analysis (W6/32 immunoaffinity purification, LC-MS/MS) of primary AML samples; details: 15 AML samples; for Number of positive AMLs: HLA class I ligandome; for rep. frequency % in AMLs: source protein level, HLA class I
[2] = test system: BMNC of healthy donors; test: HLA class I ligandome analysis (LC-MS/MS) of healthy donor BMNC; details: 5 BMNC samples; for Number of positive healthy donors (BMNC): HLA class I ligandome, second figure of the cell; for rep. frequency % in healthy donors (BMNC): source protein level
[3] = test system: PBMC of healthy donors; test: HLA class I ligandome analysis (LC-MS/MS) of healthy donor PBMC; details: 30 PBMC samples
[4] = test system: primary AML samples; test: HLA class II ligandome analysis (LC-MS/MS) of primary AML samples; details: AML patients n=12; for Number of positive AMLs: HLA class II ligandome; for rep. frequency in AMLs: source protein level, HLA class II

B1: SSX2IP synovial sarcoma, X breakpoint 2 interacting protein: established AML-associated antigen, source protein of the HLA ligands listed under it (protein, UniProt Q9Y2D8 1-614, looked up)
Afadin- and …: MGDWMTVTDPGLSSESKTISQYTSETKMSPSSLYSQQVLCSSIPLSKNVHSFFSAFCTEDNIEQSISYLDQELTTFGFPSLYEESKGKETKRELNIVAVLNCMNELLVLQRKNLLAQENVETQNLKLGSDMDHLQSCYSKLKEQLETSRREMIGLQERDRQLQCKNRNLHQLLKNEKDEVQKLQNIIASRATQYNHDMKRKEREYNKLKERLHQLVMNKKDKKIAMDILNYVGRADGKRGSWRTGKTEARNEDEMYKILLNDYEYRQKQILMENAELKKVLQQMKKEMISLLSPQKKKPRERVDDSTGTVISDVEEDAGELSRESMWDLSCETVREQLTNSIRKQWRILKSHVEKLDNQVSKVHLEGFNDEDVISRQDHEQETEKLELEIQQCKEMIKTQQQLLQQQLATAYDDDTTSLLRDCYLLEEKERLKEEWSLFKEQKKNFERERRSFTEAAIRLGLERKAFEEERASWLKQQFLNMTTFDHQNSENVKLFSAFSGSSDWDNLIVHSRQPQKKPHSVSNGSPVCMSKLTKSLPASPSTSDFCQTRSCISEHSSINVLNITAEEIKPNQVGGECTNQKWSVASRPGSQEGCYSGCSLSYTNSHVEKDDLP
[1]
  Number of positive AMLs: 0
  rep. frequency % in AMLs: 0.0%
[2]
  Number of positive healthy donors (BMNC): 0
  rep. frequency % in healthy donors (BMNC): 0.0%

B2: PRAM1 PML-RARA regulated adaptor molecule 1: established AML-associated antigen, source protein of the HLA ligands listed under it (protein, UniProt Q96QH2 1-670, looked up)
PML-RARA-regulated adapter …: MAHHLPAAMESHQDFRSIKAKFQASQPEPSDLPKKPPKPEFGKLKKFSQPELSEHPKKAPLPEFGAVSLKPPPPEVTDLPKKPPPPEVTDLPKKPPPPEVTDLPKKPPPPEVTDLPKKPSKLELSDLSKKFPQLGATPFPRKPLQPEVGEAPLKASLPEPGAPARKPLQPDELSHPARPPSEPKSGAFPRKLWQPEAGEATPRSPQPELSTFPKKPAQPEFNVYPKKPPQPQVGGLPKKSVPQPEFSEAAQTPLWKPQSSEPKRDSSAFPKKASQPPLSDFPKKPPQPELGDLTRTSSEPEVSVLPKRPRPAEFKALSKKPPQPELGGLPRTSSEPEFNSLPRKLLQPERRGPPRKFSQPEPSAVLKRHPQPEFFGDLPRKPPLPSSASESSLPAAVAGFSSRHPLSPGFGAAGTPRWRSGGLVHSGGARPGLRPSHPPRRRPLPPASSLGHPPAKPPLPPGPVDMQSFRRPSAASIDLRRTRSAAGLHFQDRQPEDIPQVPDEIYELYDDVEPRDDSSPSPKGRDEAPSVQQAARRPPQDPALRKEKDPQPQQLPPMDPKLLKQLRKAEKAEREFRKKFKFEGEIVVHTKMMIDPNAKTRRGGGKHLGIRRGEILEVIEFTSNEEMLCRDPKGKYGYVPRTALLPLETEVYDDVDFCDPLENQPLPLGR
[1]
  Number of positive AMLs: 3
  rep. frequency % in AMLs: 20.0%
[2]
  Number of positive healthy donors (BMNC): 1
  rep. frequency % in healthy donors (BMNC): 20.0%

B3: NUSAP1 nucleolar and spindle associated protein 1: established AML-associated antigen, source protein of the HLA ligands listed under it (protein, UniProt Q9BXS6 1-441, looked up)
Nucleolar and …: MIIPSLEELDSLKYSDLQNLAKSLGLRANLRATKLLKALKGYIKHEARKGNENQDESQTSASSCDETEIQISNQEEAERQPLGHVTKTRRRCKTVRVDPDSQQNHSEIKISNPTEFQNHEKQESQDLRATAKVPSPPDEHQEAENAVSSGNRDSKVPSEGKKSLYTDESSKPGKNKRTAITTPNFKKLHEAHFKEMESIDQYIERKKKHFEEHNSMNELKQQPINKGGVRTPVPPRGRLSVASTPISQRRSQGRSCGPASQSTLGLKGSLKRSAISAAKTGVRFSAATKDNEHKRSLTKTPARKSAHVTVSGGTPKGEAVLGTHKLKTITGNSAAVITPFKLTTEATQTPVSNKKPVFDLKASLSRPLNYEPHKGKLKPWGQSKENNYLNQHVNRINFYKKTYKQPHLQTKEEQRKKREQERKEKKAKVLGMRRGLILAED
[3]; HLA class I ligandome, first figure of the cell
  Number of positive healthy donors (PBMC): 2
[3]; source protein level
  rep. frequency % in healthy donors (PBMC): 6.6%
[2]
  Number of positive healthy donors (BMNC): 2
  rep. frequency % in healthy donors (BMNC): 40.0%

B4: CLSTN1 calsyntenin 1: HLA class II ligandome-derived tumor-associated antigen (LiTAA), source protein of the peptides listed under it (protein, UniProt O94985 29-981, looked up)
Calsyntenin-1: ARVNKHKPWLEPTYHGIVTENDNTVLLDPPLIALDKDAPLRFAESFEVTVTKEGEICGFKIHGQNVPFDAVVVDKSTGEGVIRSKEKLDCELQKDYSFTIQAYDCGKGPDGTNVKKSHKATVHIQVNDVNEYAPVFKEKSYKATVIEGKQYDSILRVEAVDADCSPQFSQICSYEIITPDVPFTVDKDGYIKNTEKLNYGKEHQYKLTVTAYDCGKKRATEDVLVKISIKPTCTPGWQGWNNRIEYEPGTGALAVFPNIHLETCDEPVASVQATVELETSHIGKGCDRDTYSEKSLHRLCGAAAGTAELLPSPSGSLNWTMGLPTDNGHDSDQVFEFNGTQAVRIPDGVVSVSPKEPFTISVWMRHGPFGRKKETILCSSDKTDMNRHHYSLYVHGCRLIFLFRQDPSEEKKYRPAEFHWKLNQVCDEEWHHYVLNVEFPSVTLYVDGTSHEPFSVTEDYPLHPSKIETQLVVGACWQEFSGVENDNETEPVTVASAGGDLHMTQFFRGNLAGLTLRSGKLADKKVIDCLYTCKEGLDLQVLEDSGRGVQIQAHPSQLVLTLEGEDLGELDKAMQHISYLNSRQFPTPGIRRLKITSTIKCFNEATCISVPPVDGYVMVLQPEEPKISLSGVHHFARAASEFESSEGVFLFPELRIISTITREVEPEGDGAEDPTVQESLVSEEIVHDLDTCEVTVEGEELNHEQESLEVDMARLQQKGIEVSSSELGMTFTGVDTMASYEEVLHLLRYRNWHARSLLDRKFKLICSELNGRYISNEFKVEVNVIHTANPMEHANHMAAQPQFVHPEHRSFVDLSGHNLANPHPFAVVPSTATVVIVVCVSFLVFMIILGVFRIRAAHRRTMRDQDTGKENEMDWDDSALTITVNPMETYEDQHSSEEEEEEEEEEESEDGEEEDDITSAESESSEEEEGEQGDPQNATRQQQLEWDDSTLSY
[4]
  Number of positive AMLs: 4
  rep. frequency in AMLs: 33.3%

B5: SPN sialophorin: HLA class II ligandome-derived tumor-associated antigen (LiTAA), source protein of the peptides listed under it (protein, UniProt P16150 20-400, looked up)
Leukosialin: STTAVQTPTSGEPLVSTSEPLSSKMYTTSITSDPKADSTGDQTSALPPSTSINEGSPLWTSIGASTGSPLPEPTTYQEVSIKMSSVPQETPHATSHPAVPITANSLGSHTVTGGTITTNSPETSSRTSGAPVTTAASSLETSRGTSGPPLTMATVSLETSKGTSGPPVTMATDSLETSTGTTGPPVTMTTGSLEPSSGASGPQVSSVKLSTMMSPTTSTNASTVPFRNPDENSRGMLPVAVLVALLAVIVLVALLLLWRRRQKRRTGALVLSRGGKRNGVVDAWAGPAQVPEEGAVTVTVGGSGGDKGSGFPDGEGSSRRPTLTTFFGRRKSRQGSLAMEELKSGSGPSLKGEEEPLVASEDGAVDAPAPDEPEGGDGAAP
[4]
  Number of positive AMLs: 4
  rep. frequency in AMLs: 33.3%

B6: QSOX1 quiescin Q6 sulfhydryl oxidase 1: HLA class II ligandome-derived tumor-associated antigen (LiTAA), source protein of the peptides listed under it (protein, UniProt O00391 30-747, looked up)
Sulfhydryl oxidase 1: APRSALYSPSDPLTLLQADTVRGAVLGSRSAWAVEFFASWCGHCIAFAPTWKALAEDVKAWRPALYLAALDCAEETNSAVCRDFNIPGFPTVRFFKAFTKNGSGAVFPVAGADVQTLRERLIDALESHHDTWPPACPPLEPAKLEEIDGFFARNNEEYLALIFEKGGSYLGREVALDLSQHKGVAVRRVLNTEANVVRKFGVTDFPSCYLLFRNGSVSRVPVLMESRSFYTAYLQRLSGLTREAAQTTVAPTTANKIAPTVWKLADRSKIYMADLESALHYILRIEVGRFPVLEGQRLVALKKFVAVLAKYFPGRPLVQNFLHSVNEWLKRQKRNKIPYSFFKTALDDRKEGAVLAKKVNWIGCQGSEPHFRGFPCSLWVLFHFLTVQAARQNVDHSQEAAKAKEVLPAIRGYVHYFFGCRDCASHFEQMAAASMHRVGSPNAAVLWLWSSHNRVNARLAGAPSEDPQFPKVQWPPRELCSACHNERLDVPVWDVEATLNFLKAHFSPSNIILDFPAAGSAARRDVQNVAAAPELAMGALELESRNSTLDPGKPEMMKSPTNTTPHVPAEGPEASRPPKLHPGLRAAPGQEPPEHMAELQRNEQEQPLGQWHLSKRDTGAALLAESRAEKNRLWGPLEVRRVGRSSKQLVDIPEGQLEARAGRGRGQWLQVLGGGFSYLDISLCVGLYSLSFMGLLAMYTYFQAKIRALKGHAGHPAA
[4]
  Number of positive AMLs: 3
  rep. frequency in AMLs: 25.0%

B7: MANBA mannosidase, beta A, lysosomal: HLA class II ligandome-derived tumor-associated antigen (LiTAA), source protein of the peptides listed under it (protein, UniProt O00462 18-879, looked up)
Beta-mannosidase: AAELSYSLRGNWSICNGNGSLELPGAVPGCVHSALFQQGLIQDSYYRFNDLNYRWVSLDNWTYSKEFKIPFEISKWQKVNLILEGVDTVSKILFNEVTIGETDNMFNRYSFDITNVVRDVNSIELRFQSAVLYAAQQSKAHTRYQVPPDCPPLVQKGECHVNFVRKEQCSFSWDWGPSFPTQGIWKDVRIEAYNICHLNYFTFSPIYDKSAQEWNLEIESTFDVVSSKPVGGQVIVAIPKLQTQQTYSIELQPGKRIVELFVNISKNITVETWWPHGHGNQTGYNMTVLFELDGGLNIEKSAKVYFRTVELIEEPIKGSPGLSFYFKINGFPIFLKGSNWIPADSFQDRVTSELLRLLLQSVVDANMNTLRVWGGGIYEQDEFYELCDELGIMVWQDFMFACALYPTDQGFLDSVTAEVAYQIKRLKSHPSIIIWSGNNENEEALMMNWYHISFTDRPIYIKDYVTLYVKNIRELVLAGDKSRPFITSSPTNGAETVAEAWVSQNPNSNYFGDVHFYDYISDCWNWKVFPKARFASEYGYQSWPSFSTLEKVSSTEDWSFNSKFSLHRQHHEGGNKQMLYQAGLHFKLPQSTDPLRTFKDTIYLTQVMQAQCVKTETEFYRRSRSEIVDQQGHTMGALYWQLNDIWQAPSWASLEYGGKWKMLHYFAQNFFAPLLPVGFENENTFYIYGVSDLHSDYSMTLSVRVHTWSSLEPVCSRVTERFVMKGGEAVCLYEEPVSELLRRCGNCTRESCVVSFYLSADHELLSPTNYHFLSSPKEAVGLCKAQITAIISQQGDIFVFDLETSAVAPFVWLDVGSIPGRFSDNGFLMTEKTRTILFYPWEPTSKNELEQSFHVTSLTDIY
[4]
  Number of positive AMLs: 3
  rep. frequency in AMLs: 25.0%
